Patent publication US20160347813A1, “GLUCAGON ANALOGUES” (Zealand Pharma A/S, priority 2011, published 2016)

Protein sequences, listed by entry. Tags and fused reporters are not part of them. Residues count along the entry.
UniProt P47871, 26-477: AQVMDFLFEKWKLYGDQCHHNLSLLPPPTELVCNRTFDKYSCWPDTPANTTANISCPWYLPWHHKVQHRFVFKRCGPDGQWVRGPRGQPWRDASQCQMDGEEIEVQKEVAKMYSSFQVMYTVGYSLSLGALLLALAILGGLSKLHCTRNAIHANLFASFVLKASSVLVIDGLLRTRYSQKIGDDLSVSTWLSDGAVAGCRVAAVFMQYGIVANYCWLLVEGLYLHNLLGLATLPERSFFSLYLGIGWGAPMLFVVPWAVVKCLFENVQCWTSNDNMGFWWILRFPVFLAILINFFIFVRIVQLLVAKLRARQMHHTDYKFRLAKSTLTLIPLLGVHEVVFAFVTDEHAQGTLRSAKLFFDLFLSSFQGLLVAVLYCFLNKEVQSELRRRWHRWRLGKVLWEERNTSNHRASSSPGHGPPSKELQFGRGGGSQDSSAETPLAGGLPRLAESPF

Target: T1, human Glucagon-R (Homo sapiens, UniProt P47871)
T1 construct: The DNA encoding the Glucagon-R or the GLP-1-R was amplified by PCR using primers encoding terminal restriction sites for subcloning; expressed in transfected cells
Assay: Glucagon receptor efficacy assay (cAMP generation in HEK293 cells)
Format: cell-based
Text: The DNA encoding the Glucagon-R or the GLP-1-R was amplified by PCR using primers encoding terminal restriction sites for subcloning. The 5′-end primers additionally encoded a near Kozak consensus sequence to ensure efficient translation. The fidelity of the DNA encoding the Glucagon-R and the GLP-1-R was confirmed by DNA sequencing. The PCR products encoding the Glucagon-R or the GLP-1-R were subcloned into a mammalian expression vector containing a neomycin (G418) resistance marker. The mammalian expression vectors encoding the Glucagon-R or the GLP-1-R were transfected into HEK293 cells by a standard calcium phosphate transfection method. 48 hr after transfection cells were seeded for limited dilution cloning and selected with 1 mg/ml G418 in the culture medium. Three weeks later 12 surviving colonies of Glucagon-R and GLP-1-R expressing cells were picked, propagated and tested in the Glucagon-R and GLP-1-R efficacy assays as described below. One Glucagon-R expressing clone and one GLP-1-R expressing clone were chosen for compound profiling.
On the day of analysis, growth medium was removed and the cells washed once with 200 μl Tyrode buffer. Cells were incubated in 100 μl Tyrode buffer containing increasing concentrations of test peptides, 100 μM IBMX, and 6 mM glucose for up 15 min at 37° C. The reaction was stopped by addition of 25 μl 0.5 M HCl and incubated on ice for 60 min. […]

EC50: 0.05 nM
Structure (SMILES): CCCCCCCCCCCCCCCC(=O)N[C@@H](CCC(=O)NCCCC[C@H](NC(=O)[C@H](CCC(=O)O)NC(=O)[C@H](CC(=O)O)NC(=O)[C@H](CC(C)C)NC(=O)[C@H](Cc1ccc(O)cc1)NC(=O)[C@H](CCCCN)NC(=O)[C@H](CO)NC(=O)[C@H](Cc1ccc(O)cc1)NC(=O)[C@H](CC(=O)O)NC(=O)[C@H](CO)NC(=O)[C@@H](NC(=O)[C@H](Cc1ccccc1)NC(=O)[C@@H](NC(=O)CNC(=O)[C@H](CCC(N)=O)NC(=O)[C@@H](CO)NC(=O)[C@@H](N)Cc1c[nH]cn1)[C@@H](C)O)[C@@H](C)O)C(=O)N[C@@H](CCCNC(=N)N)C(=O)N[C@@H](C)C(=O)N[C@@H](CCCCN)C(=O)N[C@@H](CC(=O)O)C(=O)N[C@@H](Cc1ccccc1)C(=O)N[C@H](C(=O)N[C@@H](CCC(=O)O)C(=O)N[C@@H](Cc1c[nH]c2ccccc12)C(=O)N[C@@H](CC(C)C)C(=O)N[C@@H](CC(C)C)C(=O)N[C@@H](CO)C(=O)N[C@@H](C)C(N)=O)[C@@H](C)CC)C(=O)O [Compound 17]
